Test results published in publication PMC9474880.
These are yes or no findings as the source states them, for the method shown. Binding seen in cells or lysates may run through a third protein. Some binding calls cover weakened binding; strength is not graded here. Each block holds one binder with its values, some of them ahead of it.

Chains of the proteins cited; added tags and fusions are not shown.
UniProt Q07820: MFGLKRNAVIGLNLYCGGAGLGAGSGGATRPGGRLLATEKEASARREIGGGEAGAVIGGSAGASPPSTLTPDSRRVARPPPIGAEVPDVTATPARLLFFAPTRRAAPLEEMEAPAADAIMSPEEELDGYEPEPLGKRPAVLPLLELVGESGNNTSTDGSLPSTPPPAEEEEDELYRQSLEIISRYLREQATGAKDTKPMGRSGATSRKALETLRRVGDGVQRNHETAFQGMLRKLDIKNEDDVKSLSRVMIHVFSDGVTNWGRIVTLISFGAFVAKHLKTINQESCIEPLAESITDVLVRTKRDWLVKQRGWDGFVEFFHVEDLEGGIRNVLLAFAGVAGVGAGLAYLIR

Experiments:
[1] = target: MCL-1 (human (endogenous in primary bCAFs)), Q07820; experiment: co-IP; endogenous MCL-1 immunoprecipitated (anti-MCL-1 antibody, Protein A magnetic beads) from 200 ug of CAF lysate in CHAPS 1%, TRIS-HCl 20 mM pH 7.5, NaCl 150 mM, EDTA 1 mM; western blot for MCL-1, DRP1 or NOXA; CAFs treated or not with S63845, in presence or not of Mdivi-1; conditions: remark: other sources report otherwise
[2] = target: MCL-1 (human (endogenous in primary bCAFs)) (UniProt Q07820); experiment: co-IP; as a1, CAFs treated with S63845 (MCL-1 BH3 mimetic) before lysis

binding [1]: binds
B1: NOXA, Q13794 1-54 (protein)
chain: MPGKKARKNAQPSPARAPAELEVECATQLRRFGDKLNFRQKLLNLISKLFCSGT

B2: NOXA (protein, UniProt Q13794 1-54)
chain: B1 chain
binding [2]: no binding (condition: CAFs treated with S63845)
